The other results are listed elsewhere or left out. Further columns of the screen follow, without active or inactive calls. The list favours compounds with an active or inconclusive main result. Potencies come from curve fits of mixed quality, noted in brackets.

The nature of the assay: qHTS Assay to Find Inhibitors of Chronic Active B-Cell Receptor Signaling. Conditions: ABC-DLBCL IkBa-CBG/CBR reporter, luminescence ratio (green luciferase fused to IkBa over red control in TMD8 lymphoma cells), 4 h. Summed up: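 Compounds up to 46 uM were incubated four hours with TMD8 cells whose green CBG68 luciferase is fused to IkappaBalpha; red CBR luminescence normalised the signal, and concentration-effect curves were fitted to fusion, red and ratio data.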
Background: In qHTS, concentration-response curves come from the screen itself.

[1] abbreviates: measured here: CBR red luminescence, cell number.
The mark [2] stands for this setting: measured here: IkBa-CBG green luminescence.

A word on the AC50: it is the concentration at which the activity in the assay is half-maximal. Take `CC(NC(=O)c1ccco1)C(=O)N1CC=C(c2ccccc2)CC1` (stereo not drawn): the AC50 under setting [1] is 2.59 µM [rising, full curve, poor fit].

For `Cc1ccc(C(=O)CCNc2ccc(F)c(Cl)c2)o1`, under setting [1], the half-maximal activity concentration (AC50) is 3.16 µM [rising, full curve, poor fit].

Consider `CC(C)(C)Nc1nc(-c2ccc3c(c2)CCN3C(=O)C2CC2)cs1`, for which the AC50 under setting [1] is 1.58 µM [rising, full curve, poor fit].

Regarding `Cn1c(SCC(=O)N2CCCc3ccccc32)ncc(C(=O)Nc2ccc(F)cc2)c1=O`, the AC50 under setting [1] was 35.5 µM [falling, single point].

As to `Cc1ccc(C(=O)Nc2ncc(Cc3ccc(SC(F)F)cc3)s2)cc1`, the AC50 is 11.6 µM [rising, partial curve, poor fit] under setting [1] and 3.66 µM [falling, full curve] under setting [2].

Turning to `Cc1ncoc1C(=O)NCCC(c1ccccc1)c1ccccc1`, the AC50 under setting [1] was 14.1 µM [falling, partial curve, poor fit].

Take `COc1ccc(NC(=O)CSc2nc(N)c(-c3ccccc3)c(=O)[nH]2)cc1`: the AC50 under setting [1] was 6.51 µM [rising, single point].

For the molecule `CCCCN1C(=O)C(NC(=O)C2CC2)(C(F)(F)F)C2=C1CC(C)(C)CC2=O` (stereo not drawn), the AC50 under setting [1] is 5.62 µM [rising, partial curve, poor fit].

Consider `CCc1nnc(NC(=O)c2cc(-c3ccccc3)nn2-c2ccccc2)s1`, for which the AC50 under setting [1] is 5.01 µM [falling, partial curve, poor fit].

As for `CN1C(=O)C2(Nc3ccccc3-c3nc4ccccc4n32)c2ccccc21` (stereo not drawn), the AC50 under setting [1] is 22.4 µM [falling, single point].

`CCOC(=O)c1c(C)c2c(=O)[nH]cnc2n1-c1ccccc1`: the AC50 under setting [1] was 1 µM [rising, full curve, poor fit].

`CCNC(=O)c1sc(-c2ccccc2)nc1C`: the AC50 under setting [1] is 3.16 µM [rising, single point].

Take `CCn1c(SCC(=O)N2CCCc3ccccc32)nc2ccccc2c1=O`: the AC50 under setting [1] is 4.47 µM [falling, full curve].

As to `Cc1nn(CC(=O)N2CCc3ccccc32)c(C)c1S(=O)(=O)NC(C)(C)C`, the AC50 under setting [1] is 2.91 µM [rising, partial curve, poor fit].

As for `Cc1ccc(S(=O)(=O)N(C)c2ccc(C(=O)Nc3ccccn3)cc2)cc1`, the AC50 under setting [1] was 23.1 µM [falling, single point].

As to `Cc1c(Cl)cccc1NC(=O)C1NC(=O)CC1c1ccccc1` (stereo not drawn), the AC50 under setting [1] is 3.26 µM [falling, partial curve, poor fit].

For `Cc1ccc(S(=O)(=O)NC(CC(C)C)C(=O)Oc2ccc3c4c(c(=O)oc3c2)CCC4)cc1` (stereo not drawn), under setting [1], the AC50 was 35.5 µM [falling, single point].

As to `Cc1ccc(C)c(N2CCN(C(=O)c3ccc(CS(=O)Cc4ccc(Cl)cc4)o3)CC2)c1` (stereo not drawn), the AC50 under setting [1] was 10 µM [falling, partial curve].

On to `O=C(/C=C\c1ccc2c(c1)OCO2)NC1CC(=O)N(c2ccc(F)cc2)C1` (stereo not drawn), for which the concentration at half-maximal activity (AC50) under setting [1] is 25.1 µM [falling, single point].

With `COCCSc1ccccc1C(=O)Nc1ccccc1C(C)C`, the AC50 under setting [1] is 15.8 µM [rising, single point].

For `O=C1CC(c2ccco2)CC2=C1C(c1ccccc1)n1nc(C(F)(F)F)nc1N2` (stereo not drawn), under setting [1], the AC50 was 29.1 µM [falling, single point].

`Cc1nnc2ccc(-c3ccc(NS(=O)(=O)c4ccccc4F)cc3)nn12`: under setting [1], the AC50 is 9.2 µM [rising, partial curve, poor fit].

With `N/C(=N\OC(=O)c1ccccc1F)c1ccc([N+](=O)[O-])cc1`, the AC50 under setting [1] was 0.562 µM [rising, full curve, poor fit].

As for `O=C(CSc1nnc2n(C3CCCC3)c(=O)c3ccccc3n12)N1CCCCCC1`, the AC50 under setting [1] was 16.4 µM [falling, single point].

`CNC(=S)N/N=C(\C)c1ccc(N2CCOCC2)cc1`: the concentration at half-maximal activity (AC50) by setting is: under setting [1], 0.92 µM [falling, full curve]; under setting [2], 23.1 µM [falling, single point].

Turning to `Cc1nn(-c2ccc(C(=O)O)cc2)c(N)c1-c1ccccc1`, under setting [1], the AC50 is 2 µM [falling, full curve].

For the molecule `CCCc1cc(=O)n2[nH]c(-c3ccccc3)cc2n1`, under setting [1], the AC50 was 7.31 µM [falling, partial curve, poor fit].

`O=C(OCc1nc2ccccc2s1)[C@@H]1CCCN1S(=O)(=O)c1ccccc1F`: the AC50 under setting [1] was 0.651 µM [rising, partial curve, poor fit].

On to `Cc1ccc(C)c(OCC(=O)N2CCc3ccccc3C2)c1`, for which, under setting [1], the AC50 is 8.91 µM [falling, partial curve].

With `N#C/C(=C\c1cccs1)C(=O)NCc1ccccc1`, under setting [1], the AC50 is 4.11 µM [rising, partial curve, poor fit].

With `Cc1cc(=O)oc(C)c1C(=O)NCc1ccco1`, the AC50 under setting [1] was 3.16 µM [falling, single point].

For `CCOc1ccc(N)c(SSc2cc(OCC)ccc2N)c1`, the concentration at half-maximal activity (AC50) by setting is: under setting [1], 14.1 µM [falling, partial curve, poor fit]; under setting [2], 17.8 µM [falling, single point].

Turning to `CCn1c(SCc2ccc(F)cc2)nc2c(c1=O)SCC2`, the AC50 under setting [1] is 35.5 µM [falling, single point].

Turning to `C=CCNC(=O)C(C)N1C(=O)c2ccccc2C1=O` (stereo not drawn), the AC50 under setting [1] is 29.1 µM [rising, single point].

In the case of `O=C(O)c1cccc(NC2=C(N3CCOCC3)C(=O)c3ccccc3C2=O)c1`, the AC50 under setting [1] is 17.8 µM [falling, single point].

For the molecule `COc1ccccc1/C=C/C=C1\Oc2c(ccc(O)c2CN2CCN(CCO)CC2)C1=O`, the AC50 under setting [1] is 20.6 µM [falling, partial curve].

As to `Cc1cccc2cn[nH]c12`, the AC50 under setting [1] is 0.398 µM [falling, full curve, poor fit].

Turning to `O=C(Nc1ccc(Oc2ccc(NC(=O)c3ccco3)c(NC(=O)c3ccco3)c2)cc1)c1ccco1`, the AC50 under setting [1] is 3.26 µM [rising, full curve, poor fit].

For the molecule `CC(C)(C)C1CCc2c(sc(N)c2C(N)=O)C1` (stereo not drawn), under setting [1], the AC50 was 35.5 µM [falling, single point].

Turning to `CCOc1ccc(C(=O)NC(=S)Nc2ccccc2OC)cc1[N+](=O)[O-]`, the AC50 under setting [1] was 23.1 µM [rising, partial curve].

The values are drawn from PubChem BioAssay AID493014 (National Center for Advancing Translational Sciences (NCATS), 2011).
